Data on three molecules can be found in paper PMC7460215.

Amino acid sequences for entries named in this document (tags omitted).
UniProt Q2HJ97: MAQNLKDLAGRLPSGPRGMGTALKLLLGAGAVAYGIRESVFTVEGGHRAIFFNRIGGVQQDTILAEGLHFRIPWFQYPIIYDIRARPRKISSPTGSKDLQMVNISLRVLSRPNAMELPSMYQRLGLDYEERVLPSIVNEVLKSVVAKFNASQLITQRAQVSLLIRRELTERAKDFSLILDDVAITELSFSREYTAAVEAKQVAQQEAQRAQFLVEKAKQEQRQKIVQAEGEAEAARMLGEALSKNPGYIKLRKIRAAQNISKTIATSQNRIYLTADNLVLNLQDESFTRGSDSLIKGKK
UniProt Q3ZC32: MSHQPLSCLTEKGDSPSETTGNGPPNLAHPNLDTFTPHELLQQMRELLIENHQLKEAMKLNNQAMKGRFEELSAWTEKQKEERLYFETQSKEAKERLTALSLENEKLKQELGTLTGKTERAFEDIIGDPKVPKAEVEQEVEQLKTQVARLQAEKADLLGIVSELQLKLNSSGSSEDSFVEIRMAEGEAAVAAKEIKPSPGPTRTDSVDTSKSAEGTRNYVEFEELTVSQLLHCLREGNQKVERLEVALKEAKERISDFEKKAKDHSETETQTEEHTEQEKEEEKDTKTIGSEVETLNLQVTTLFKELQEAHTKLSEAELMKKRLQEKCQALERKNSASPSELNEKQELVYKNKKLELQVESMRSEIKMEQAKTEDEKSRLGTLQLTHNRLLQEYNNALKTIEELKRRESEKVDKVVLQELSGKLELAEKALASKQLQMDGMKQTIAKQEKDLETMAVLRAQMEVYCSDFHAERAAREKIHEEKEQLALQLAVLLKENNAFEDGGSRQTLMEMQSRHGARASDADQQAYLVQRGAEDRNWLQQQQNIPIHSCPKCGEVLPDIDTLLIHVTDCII

Assay [1] concerns the target T1, Prohibitin 1 (PHB1) (cattle (endogenous in bovine bladder mucosa)) (UniProt Q3T165).
T1 sequence: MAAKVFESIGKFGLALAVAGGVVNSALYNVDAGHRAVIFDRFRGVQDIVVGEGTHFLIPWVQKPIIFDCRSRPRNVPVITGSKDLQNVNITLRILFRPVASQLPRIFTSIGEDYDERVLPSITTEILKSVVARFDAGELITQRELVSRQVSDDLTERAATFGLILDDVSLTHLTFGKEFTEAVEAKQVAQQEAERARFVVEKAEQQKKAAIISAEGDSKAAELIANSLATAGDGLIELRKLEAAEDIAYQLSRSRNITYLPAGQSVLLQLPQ
The experiment in a line: co-IP; anti-PHB1 antibody on mitochondrial and cytosolic extracts (100 ug protein) of healthy and neoplastic bovine bladder mucosa; Protein A/G-Plus agarose overnight at 4 °C; Western blot; isotype IgG as control.

In assay [2] the target is Prohibitin 2 (PHB2) (cattle (endogenous in bovine bladder mucosa)) (UniProt Q2HJ97). In words: co-IP; anti-PHB2 antibody on mitochondrial and cytosolic extracts (100 ug protein) of healthy and neoplastic (BPV-infected) bovine bladder mucosa; Protein A/G-Plus agarose overnight at 4 °C; four washes in complete lysis buffer; Western blot; isotype IgG as control. For orientation: Immunoblotting shows a protein as a band on a membrane.

For assay [3] the target is unchanged. Described as above. The source holds these as a separate data set.

Where two headings read alike, the source gives them in different places. Results are given in words; binding and its absence hold for the method and conditions named. In cells and extracts the contact can be indirect. Some results given as binding are weak or reduced against the parent protein; the word gives no strength.

Take “Prohibitin 2 (PHB2) (from UniProt Q2HJ97 1-299)”: the binding result in assay [1] is on record as “binds”.
Take “optineurin (OPTN) (from UniProt Q3ZC32 1-573)”: the binding entry in assay [2] is given as “binds”.

B1: Prohibitin 1 (PHB1) (protein, UniProt Q3T165 1-272)
chain: MAAKVFESIGKFGLALAVAGGVVNSALYNVDAGHRAVIFDRFRGVQDIVVGEGTHFLIPWVQKPIIFDCRSRPRNVPVITGSKDLQNVNITLRILFRPVASQLPRIFTSIGEDYDERVLPSITTEILKSVVARFDAGELITQRELVSRQVSDDLTERAATFGLILDDVSLTHLTFGKEFTEAVEAKQVAQQEAERARFVVEKAEQQKKAAIISAEGDSKAAELIANSLATAGDGLIELRKLEAAEDIAYQLSRSRNITYLPAGQSVLLQLPQ
Turning to B1, the binding entry in assay [3] is on record as “binds”.
